PubChem BioAssay AID743454, Peter MacCallum Cancer Centre, 2014
In all, the deposit lists about 18,000 reagents; shown is an unselected part. Of all reagents, 450 (2.5%) got an active call. 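Single biological run; no consistent viability z cut-off exists, so the class columns, not z-scores, define the calls.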

Test: 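Search for knock-downs that restore vorinostat killing in resistant colon cancer cells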 (primary screen)
Cell system: human HCT116-VR colon cancer cells, selected for vorinostat resistance
Reagent: siRNA pool against human genes, 40 nM siRNA pool
Timing: vorinostat for 24 h, read-out about 72 h after transfection
Treatment: vorinostat at 2.5 µM final
Measurement: 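Two measures, CellTiter-Fluor viability and luminescent caspase 3/7 activity, each as fold change against same-plate mock wells, mean of duplicates, then screen-wide robust z-score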
Direction: viability robust z-score: higher = more viable cells than screen typical; caspase robust z-score: higher = more caspase 3/7 activity than screen typical
Hit rule: 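a knock-down is a hit when classed RV1 or RV2 for lowered viability, or CA1 or CA2 for caspase activation; those lethal without drug were dropped; hits were retested singly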

| target | viability hit class | caspase hit class | viability robust z-score | caspase robust z-score | outcome |
| --- | --- | --- | --- | --- | --- |
| ERMARD | no change | no change | 1.77 | 0.38 | inactive |
| NOD1 | no change | no change | 0.5 | -0.76 | inactive |
| BBX | no change | no change | -0.86 | -0.44 | inactive |
| FOXQ1 | no change | no change | 0.07 | 0.02 | inactive |
| OR4K15 | no change | no change | 0.14 | -0.66 | inactive |
| SNRNP40 | no change | no change | -0.24 | 1.05 | inactive |
| SKIC8 | no change | no change | -2.19 | 3.86 | inactive |
| KRTAP1-5 | no change | no change | -2.33 | 1.73 | inactive |
| UGT1A6 | no change | no change | 0.8 | -0.97 | inactive |
| PI4KB | no change | no change | -0.47 | -1.31 | inactive |
| OR10J3 | no change | no change | -1.01 | 2.29 | inactive |
| LY6G5B | no change | no change | 0.82 | -0.77 | inactive |
| MAP3K1 | no change | no change | -0.78 | -0.87 | inactive |
| KRTAP13-2 | no change | CA1 (caspase activation) | -0.38 | 5.39 | active |
| CFAP57 | no change | no change | 1.5 | -0.34 | inactive |
| TRIM7 | no change | no change | 0.4 | -0.08 | inactive |
| CCR7 | no change | no change | 1.18 | -0.67 | inactive |
| ARHGEF37 | no change | no change | 0.8 | 0.36 | inactive |
| SPOPL | no change | no change | 0.15 | 0.34 | inactive |
| KLF8 | no change | no change | 0.4 | -0.92 | inactive |
| SLC35B4 | no change | no change | 0.04 | 4.73 | inactive |
| KHK | no change | no change | 0.24 | -0.95 | inactive |
| SCNN1A | no change | no change | -0.6 | -0.14 | inactive |
